Assay [1] addresses T1, 6x His-tagged recombinant human R1 (RRM1) (human) (UniProt P23921).
T1 sequence: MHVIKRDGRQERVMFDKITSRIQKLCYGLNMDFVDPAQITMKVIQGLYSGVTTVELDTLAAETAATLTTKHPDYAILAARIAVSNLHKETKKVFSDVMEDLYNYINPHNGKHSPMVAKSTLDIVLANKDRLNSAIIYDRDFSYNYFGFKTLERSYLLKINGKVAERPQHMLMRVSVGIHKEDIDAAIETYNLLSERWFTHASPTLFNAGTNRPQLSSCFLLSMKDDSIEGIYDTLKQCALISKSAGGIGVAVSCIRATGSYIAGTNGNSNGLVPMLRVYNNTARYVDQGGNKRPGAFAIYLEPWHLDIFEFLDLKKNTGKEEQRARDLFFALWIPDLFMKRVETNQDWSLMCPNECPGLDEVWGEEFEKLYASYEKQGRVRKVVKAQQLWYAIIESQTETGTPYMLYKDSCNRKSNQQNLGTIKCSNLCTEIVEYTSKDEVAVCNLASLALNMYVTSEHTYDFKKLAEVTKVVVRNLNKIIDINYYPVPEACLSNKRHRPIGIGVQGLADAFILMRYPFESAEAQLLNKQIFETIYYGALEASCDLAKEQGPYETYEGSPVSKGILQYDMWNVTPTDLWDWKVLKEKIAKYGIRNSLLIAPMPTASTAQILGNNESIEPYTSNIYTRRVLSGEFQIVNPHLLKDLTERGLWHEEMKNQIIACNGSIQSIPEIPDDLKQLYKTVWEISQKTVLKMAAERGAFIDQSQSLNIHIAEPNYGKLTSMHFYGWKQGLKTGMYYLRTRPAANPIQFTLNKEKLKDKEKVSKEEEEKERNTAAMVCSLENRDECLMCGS
Kind of assay: co-IP; recombinant His-R1 and GST-R2 in the reaction mixture of the AlphaLISA assay; precipitated with anti-RRM1 antibody or rabbit IgG; with or without TAS1553; both purified. A general note: In Alpha technology, singlet oxygen from a donor bead excites a nearby acceptor bead.

Assay [2] has as its target T1, 6x His-tagged recombinant human R1 (RRM1) (human). Kind of assay: AlphaScreen or HTRF; AlphaLISA: 4.3 ug/mL His-R1 (Nickel Chelate Acceptor beads), 3.3 ug/mL GST-R2 (Glutathione Donor beads), with or without test compound; 50 mmol/L HEPES, 4 mmol/L magnesium acetate, 100 mmol/L KCl, 6 mmol/L DTT, 2 mmol/L ATP, 0.24 mmol/L NADPH, 0.010 mmol/L CDP, 0.1 vol% polysorbate 20, 1 vol% DMSO; 60 min, room temperature; both purified.

The target of assay [3] is T2, N-terminally AG-tagged hR1 (75-742 aa) (human) (UniProt P23921).
T2 sequence: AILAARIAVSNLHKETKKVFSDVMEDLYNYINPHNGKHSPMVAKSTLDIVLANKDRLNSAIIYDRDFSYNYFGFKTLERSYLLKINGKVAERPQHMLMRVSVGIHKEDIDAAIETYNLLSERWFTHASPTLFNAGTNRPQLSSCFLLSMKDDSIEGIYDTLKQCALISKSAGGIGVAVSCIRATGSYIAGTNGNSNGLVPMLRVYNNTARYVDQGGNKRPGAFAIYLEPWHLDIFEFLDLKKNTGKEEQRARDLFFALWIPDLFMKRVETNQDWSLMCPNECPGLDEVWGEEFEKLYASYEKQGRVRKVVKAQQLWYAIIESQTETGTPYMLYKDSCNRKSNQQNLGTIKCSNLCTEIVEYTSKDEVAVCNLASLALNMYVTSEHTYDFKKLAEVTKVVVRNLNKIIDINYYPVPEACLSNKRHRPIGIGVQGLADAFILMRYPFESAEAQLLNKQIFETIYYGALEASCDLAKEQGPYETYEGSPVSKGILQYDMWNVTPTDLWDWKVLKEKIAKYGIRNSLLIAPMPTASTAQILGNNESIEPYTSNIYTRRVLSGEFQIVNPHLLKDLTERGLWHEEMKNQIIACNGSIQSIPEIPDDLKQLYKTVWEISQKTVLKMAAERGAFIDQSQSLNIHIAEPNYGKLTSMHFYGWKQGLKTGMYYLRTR
Kind of assay: Fluoppi (fluorescent foci of AG-tag and Ash-tag fusions); as a4, cells treated with TAS1553 (within 30 minutes, up to 2 h); foci recovered 1 h after washout.

Assay [4] has as its target T2, N-terminally AG-tagged hR1 (75-742 aa) (human). Kind of assay: Fluoppi (fluorescent foci of AG-tag and Ash-tag fusions); AG-tagged hR1 (75-742) and Ash-tagged hR2 co-transfected into HCC38 or NCI-H460 cells; fluorescence imaging before treatment, or with DMSO or HU.

This passage reports binding results from paper PMC9184620, “TAS1553, a small molecule subunit interaction inhibitor of ribonucleotide reductase, exhibits antitumor activity by causing DNA replication stress” (Communications Biology, 2022).

No constants are given. Whether binding was seen depends on the method and setting. Some entries that bind do so weakly or less than the wild type. Where a sequence is shown, tags or fusion partners need not be part of it.

B1: GST-R2 (human RRM2, Abnova Corporation) (protein, UniProt P31350 1-389)
chain: MLSLRVPLAPITDPQQLQLSPLKGLSLVDKENTPPALSGTRVLASKTARRIFQEPTEPKTKAAAPGVEDEPLLRENPRRFVIFPIEYHDIWQMYKKAEASFWTAEEVDLSKDIQHWESLKPEERYFISHVLAFFAASDGIVNENLVERFSQEVQITEARCFYGFQIAMENIHSEMYSLLIDTYIKDPKEREFLFNAIETMPCVKKKADWALRWIGDKEATYGERVVAFAAVEGIFFSGSFASIFWLKKRGLMPGLTFSNELISRDEGLHCDFACLMFKHLVHKPSEERVREIIINAVRIEQEFLTEALPVKLIGMNCTLMKQYIEFVADRLMLELGFSKVFRVENPFDFMENISLEGKTNFFEKRVGEYQRMGVMSSPTENSFTLDADF
On to B1, for which the binding entry in assay [1] and in assay [2] was “binds” each time.

B2: N-terminally Ash-tagged hR2 (protein, UniProt P31350-1 1-389)
chain: B1 chain
Take B2: the binding result in assay [3] was “no binding (condition: with TAS1553)”; in assay [4] it was “binds”.
